# From the supplement of paper PMC12823440, “Inhibitors supercharge kinase turnover through native proteolytic circuits” (Nature, 2025)
# Sequences of proteins named here, by UniProt entry; tags and fusion partners are left off. A change or cut given only in a name is not applied to a line headed by its entry.
# UniProt Q16288, whole entry, looked up: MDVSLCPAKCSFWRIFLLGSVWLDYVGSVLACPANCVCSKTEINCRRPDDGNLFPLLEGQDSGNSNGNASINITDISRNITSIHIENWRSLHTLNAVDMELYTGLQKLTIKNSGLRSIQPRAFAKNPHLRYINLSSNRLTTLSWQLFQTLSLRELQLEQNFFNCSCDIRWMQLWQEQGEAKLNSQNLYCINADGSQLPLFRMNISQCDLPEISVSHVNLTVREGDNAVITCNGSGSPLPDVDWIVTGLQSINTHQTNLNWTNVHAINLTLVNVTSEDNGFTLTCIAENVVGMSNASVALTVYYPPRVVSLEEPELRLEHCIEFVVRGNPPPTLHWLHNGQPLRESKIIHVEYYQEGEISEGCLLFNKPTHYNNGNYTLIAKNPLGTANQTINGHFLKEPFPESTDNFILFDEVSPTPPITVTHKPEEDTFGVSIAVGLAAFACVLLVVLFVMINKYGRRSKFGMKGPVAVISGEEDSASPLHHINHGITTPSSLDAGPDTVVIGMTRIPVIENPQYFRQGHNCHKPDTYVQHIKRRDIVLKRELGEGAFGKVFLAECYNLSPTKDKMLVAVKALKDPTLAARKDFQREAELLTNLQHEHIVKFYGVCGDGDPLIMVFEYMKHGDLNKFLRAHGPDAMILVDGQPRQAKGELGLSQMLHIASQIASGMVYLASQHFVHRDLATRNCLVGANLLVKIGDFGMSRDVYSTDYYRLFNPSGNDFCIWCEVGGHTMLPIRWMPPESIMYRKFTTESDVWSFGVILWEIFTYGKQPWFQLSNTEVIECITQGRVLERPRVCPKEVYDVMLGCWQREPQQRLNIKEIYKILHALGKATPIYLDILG
# UniProt Q96KB5: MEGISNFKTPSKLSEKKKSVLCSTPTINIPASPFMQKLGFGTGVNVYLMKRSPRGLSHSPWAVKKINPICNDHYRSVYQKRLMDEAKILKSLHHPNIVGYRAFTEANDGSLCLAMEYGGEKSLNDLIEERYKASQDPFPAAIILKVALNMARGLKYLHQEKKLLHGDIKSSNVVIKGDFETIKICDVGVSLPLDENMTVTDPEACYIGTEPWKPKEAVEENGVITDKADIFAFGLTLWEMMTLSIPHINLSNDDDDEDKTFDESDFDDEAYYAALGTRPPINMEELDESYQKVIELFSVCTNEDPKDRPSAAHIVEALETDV
# UniProt P09619, whole entry: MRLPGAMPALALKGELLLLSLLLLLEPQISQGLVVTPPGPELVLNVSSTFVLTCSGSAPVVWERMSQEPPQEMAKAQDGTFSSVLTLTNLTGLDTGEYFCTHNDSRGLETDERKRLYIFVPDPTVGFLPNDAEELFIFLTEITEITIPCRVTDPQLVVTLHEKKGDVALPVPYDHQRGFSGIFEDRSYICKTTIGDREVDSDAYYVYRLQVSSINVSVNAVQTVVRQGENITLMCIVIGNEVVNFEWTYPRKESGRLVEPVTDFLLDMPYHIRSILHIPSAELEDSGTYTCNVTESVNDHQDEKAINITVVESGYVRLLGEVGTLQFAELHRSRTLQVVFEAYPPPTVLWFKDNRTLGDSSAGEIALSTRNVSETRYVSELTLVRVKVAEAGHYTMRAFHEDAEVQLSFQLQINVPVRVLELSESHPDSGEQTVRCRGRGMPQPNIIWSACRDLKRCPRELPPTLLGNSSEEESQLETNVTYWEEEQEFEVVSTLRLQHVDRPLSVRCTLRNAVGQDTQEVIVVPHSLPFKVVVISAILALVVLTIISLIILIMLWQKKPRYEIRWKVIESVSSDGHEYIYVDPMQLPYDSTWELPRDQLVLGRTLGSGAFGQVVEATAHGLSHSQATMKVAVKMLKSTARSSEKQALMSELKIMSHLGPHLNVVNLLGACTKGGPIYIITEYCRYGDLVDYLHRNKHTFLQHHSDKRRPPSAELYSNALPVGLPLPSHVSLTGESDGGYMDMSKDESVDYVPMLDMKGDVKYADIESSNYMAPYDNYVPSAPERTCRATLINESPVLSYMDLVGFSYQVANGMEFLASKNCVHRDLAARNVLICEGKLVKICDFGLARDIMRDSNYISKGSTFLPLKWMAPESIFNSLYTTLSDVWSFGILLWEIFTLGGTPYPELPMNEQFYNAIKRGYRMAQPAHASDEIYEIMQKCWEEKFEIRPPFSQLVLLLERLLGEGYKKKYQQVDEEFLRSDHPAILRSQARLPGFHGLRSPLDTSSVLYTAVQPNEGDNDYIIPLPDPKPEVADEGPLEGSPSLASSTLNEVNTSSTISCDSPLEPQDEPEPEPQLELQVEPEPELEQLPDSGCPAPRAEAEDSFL
# UniProt Q15118, whole entry, looked up: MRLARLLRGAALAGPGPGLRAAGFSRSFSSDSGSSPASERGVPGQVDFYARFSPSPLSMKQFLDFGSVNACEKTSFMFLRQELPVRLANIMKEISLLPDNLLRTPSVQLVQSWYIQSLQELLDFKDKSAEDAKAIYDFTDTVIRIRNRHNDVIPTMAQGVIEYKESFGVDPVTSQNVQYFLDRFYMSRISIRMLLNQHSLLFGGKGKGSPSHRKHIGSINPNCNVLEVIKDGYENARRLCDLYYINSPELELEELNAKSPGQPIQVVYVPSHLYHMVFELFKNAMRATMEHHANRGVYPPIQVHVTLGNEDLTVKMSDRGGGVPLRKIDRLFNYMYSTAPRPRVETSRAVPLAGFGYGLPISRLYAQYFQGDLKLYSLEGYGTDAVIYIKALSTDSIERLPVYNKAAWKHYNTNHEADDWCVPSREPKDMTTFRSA
# UniProt O15530: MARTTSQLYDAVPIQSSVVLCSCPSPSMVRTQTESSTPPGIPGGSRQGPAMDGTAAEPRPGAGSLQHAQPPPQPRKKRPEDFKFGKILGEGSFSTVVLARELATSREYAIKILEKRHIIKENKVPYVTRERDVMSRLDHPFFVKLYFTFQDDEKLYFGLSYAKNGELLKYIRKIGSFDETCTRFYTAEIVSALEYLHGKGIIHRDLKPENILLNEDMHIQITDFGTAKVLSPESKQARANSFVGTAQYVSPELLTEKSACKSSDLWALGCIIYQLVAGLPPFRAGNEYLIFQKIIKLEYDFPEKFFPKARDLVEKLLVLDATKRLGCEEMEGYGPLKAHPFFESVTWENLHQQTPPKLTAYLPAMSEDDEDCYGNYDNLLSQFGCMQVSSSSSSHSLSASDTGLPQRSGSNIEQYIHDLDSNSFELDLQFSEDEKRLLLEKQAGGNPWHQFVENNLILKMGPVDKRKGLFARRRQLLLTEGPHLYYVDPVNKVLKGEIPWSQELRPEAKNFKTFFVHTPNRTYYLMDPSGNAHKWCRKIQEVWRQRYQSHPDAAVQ
# UniProt P42356, whole entry, looked up: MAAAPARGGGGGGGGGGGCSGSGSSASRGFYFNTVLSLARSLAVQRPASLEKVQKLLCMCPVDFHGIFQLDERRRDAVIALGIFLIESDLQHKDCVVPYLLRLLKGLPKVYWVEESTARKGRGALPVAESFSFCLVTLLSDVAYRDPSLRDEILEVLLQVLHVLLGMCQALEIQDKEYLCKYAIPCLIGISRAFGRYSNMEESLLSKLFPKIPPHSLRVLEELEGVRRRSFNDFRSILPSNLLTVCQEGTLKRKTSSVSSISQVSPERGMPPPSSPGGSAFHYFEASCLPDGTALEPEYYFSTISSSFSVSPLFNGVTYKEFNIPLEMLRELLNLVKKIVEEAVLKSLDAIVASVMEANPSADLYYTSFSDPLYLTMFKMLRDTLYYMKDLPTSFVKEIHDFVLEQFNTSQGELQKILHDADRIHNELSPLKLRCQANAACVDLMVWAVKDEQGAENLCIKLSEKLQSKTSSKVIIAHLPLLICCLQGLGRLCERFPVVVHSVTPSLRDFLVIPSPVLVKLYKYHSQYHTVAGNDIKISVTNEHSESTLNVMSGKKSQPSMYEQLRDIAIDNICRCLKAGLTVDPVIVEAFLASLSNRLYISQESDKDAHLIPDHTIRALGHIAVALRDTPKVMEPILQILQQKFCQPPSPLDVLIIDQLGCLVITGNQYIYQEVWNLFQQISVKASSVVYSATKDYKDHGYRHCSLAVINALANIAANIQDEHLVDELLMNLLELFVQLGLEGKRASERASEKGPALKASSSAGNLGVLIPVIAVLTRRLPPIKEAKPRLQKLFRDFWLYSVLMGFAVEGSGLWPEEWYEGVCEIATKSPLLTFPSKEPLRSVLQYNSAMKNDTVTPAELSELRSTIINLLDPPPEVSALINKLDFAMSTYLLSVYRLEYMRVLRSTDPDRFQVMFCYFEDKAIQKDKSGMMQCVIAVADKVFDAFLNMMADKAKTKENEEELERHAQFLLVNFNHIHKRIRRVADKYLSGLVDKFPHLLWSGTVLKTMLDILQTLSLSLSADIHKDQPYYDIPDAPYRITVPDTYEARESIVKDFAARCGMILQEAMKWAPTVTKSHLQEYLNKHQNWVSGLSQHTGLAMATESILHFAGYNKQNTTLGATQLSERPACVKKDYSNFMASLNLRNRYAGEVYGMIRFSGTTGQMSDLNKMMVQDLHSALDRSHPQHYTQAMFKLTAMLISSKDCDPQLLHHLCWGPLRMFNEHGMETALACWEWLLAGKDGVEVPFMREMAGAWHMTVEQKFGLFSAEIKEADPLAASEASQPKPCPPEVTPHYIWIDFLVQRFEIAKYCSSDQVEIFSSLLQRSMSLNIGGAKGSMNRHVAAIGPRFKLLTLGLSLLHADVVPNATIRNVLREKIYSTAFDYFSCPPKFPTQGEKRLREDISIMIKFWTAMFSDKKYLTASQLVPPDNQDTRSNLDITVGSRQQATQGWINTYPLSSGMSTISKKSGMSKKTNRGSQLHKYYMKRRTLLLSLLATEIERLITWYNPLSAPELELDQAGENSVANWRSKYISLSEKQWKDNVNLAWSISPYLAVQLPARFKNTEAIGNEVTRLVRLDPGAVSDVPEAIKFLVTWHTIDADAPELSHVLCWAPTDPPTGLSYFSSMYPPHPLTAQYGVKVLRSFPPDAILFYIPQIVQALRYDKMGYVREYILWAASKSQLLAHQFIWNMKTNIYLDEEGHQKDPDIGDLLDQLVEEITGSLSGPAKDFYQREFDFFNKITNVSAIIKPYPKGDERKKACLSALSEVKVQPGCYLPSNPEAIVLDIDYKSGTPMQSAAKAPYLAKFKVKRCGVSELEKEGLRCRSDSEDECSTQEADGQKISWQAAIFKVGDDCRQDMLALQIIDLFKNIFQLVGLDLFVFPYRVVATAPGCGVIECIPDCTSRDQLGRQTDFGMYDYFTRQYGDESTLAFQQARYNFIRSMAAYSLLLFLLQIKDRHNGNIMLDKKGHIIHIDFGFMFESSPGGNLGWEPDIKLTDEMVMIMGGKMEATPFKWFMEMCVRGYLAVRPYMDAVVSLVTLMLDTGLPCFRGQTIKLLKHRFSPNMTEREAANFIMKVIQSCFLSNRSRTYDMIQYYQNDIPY
# UniProt Q9UBF8: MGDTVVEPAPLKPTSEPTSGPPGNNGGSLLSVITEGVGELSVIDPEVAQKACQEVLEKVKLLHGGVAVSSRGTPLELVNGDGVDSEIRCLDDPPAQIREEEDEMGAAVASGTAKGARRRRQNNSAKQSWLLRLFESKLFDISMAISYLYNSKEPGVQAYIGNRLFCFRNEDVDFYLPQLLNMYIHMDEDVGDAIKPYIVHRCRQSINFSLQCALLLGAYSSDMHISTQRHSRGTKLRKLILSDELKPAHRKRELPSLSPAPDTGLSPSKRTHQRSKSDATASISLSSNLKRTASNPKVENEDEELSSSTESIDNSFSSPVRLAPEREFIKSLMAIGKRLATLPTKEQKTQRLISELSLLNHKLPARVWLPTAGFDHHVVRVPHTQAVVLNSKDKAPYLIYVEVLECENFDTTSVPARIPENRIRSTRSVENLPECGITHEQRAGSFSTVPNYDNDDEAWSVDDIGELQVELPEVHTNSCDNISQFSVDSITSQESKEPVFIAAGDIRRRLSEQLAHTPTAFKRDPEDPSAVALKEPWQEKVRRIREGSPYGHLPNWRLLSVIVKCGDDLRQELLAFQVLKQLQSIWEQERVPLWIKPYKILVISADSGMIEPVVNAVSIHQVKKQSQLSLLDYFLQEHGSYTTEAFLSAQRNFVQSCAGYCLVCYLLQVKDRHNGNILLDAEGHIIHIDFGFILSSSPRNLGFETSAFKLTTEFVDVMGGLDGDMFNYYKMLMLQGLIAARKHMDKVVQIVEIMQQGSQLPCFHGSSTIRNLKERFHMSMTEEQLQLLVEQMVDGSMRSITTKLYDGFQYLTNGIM
# Where a name gives a salt, the structure may show the parent alone. This is one part of the list. The calls rarely recur for the same compound in another form.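 In K562 cells expressing nanoluciferase-fused kinases, luminescence was recorded at 4 h intervals between 2 and 18 h, normalized as percent of control with DMSO at 100% and a positive control at 0%. A significant (2 sigma) signal drop marks a time point as decreased. The authors' rule for a hit is not shown and takes in more than the number of time points.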
# What was measured:
# Experiment in all cases: number of time points (of 5) at which kinase-Nluc abundance scored as decreased, DMSO-normalised (count); higher = more persistent destabilization
# Settings in all cases: K562; 2-18 h
# NTRK3 = NTRK3 (UniProt Q16288)
# PAK4 = PAK4 (UniProt O96013)
# PBK = PBK (UniProt Q96KB5)
# PDGFRB = PDGFRB (UniProt P09619)
# PDK1 = PDK1 (UniProt Q15118)
# PDPK1 = PDPK1 (UniProt O15530)
# PIK4CA = PIK4CA (UniProt P42356)
# PIK4CB = PIK4CB (UniProt Q9UBF8)
# PLK1 = PLK1 (UniProt P53350)
# PRKAA1 = PRKAA1 (UniProt Q13131)
Compound,number of time points (NTRK3),number of time points (PAK4),number of time points (PBK),number of time points (PDGFRB),number of time points (PDK1),number of time points (PDPK1),number of time points (PIK4CA),number of time points (PIK4CB),number of time points (PLK1),number of time points (PRKAA1)
CCn1c(=O)c(-c2ccc(-c3cncc(C)n3)cc2Cl)cc2cnc(NCCC3CCN(C)CC3)nc21 (10 µM),0,0,0,0,0,0,0,0,0,0
O=C1NC(=O)C(=Cc2ccc(-c3ccc(F)cc3)o2)S1 (stereo in doubt) (10 µM),0,0,0,0,0,0,0,0,0,0
C[C@@H](c1ccc2nccn2c1)n1nnc2ncc(-c3cnn(C)c3)nc21 [Savolitinib] (10 µM),0,0,0,0,0,0,0,0,0,0
CC(C)NC(=O)N1CC[C@H](NC2=Nc3cc(F)ccc3N(CC(F)F)c3ccc(Cl)cc32)C1 (10 µM),0,0,0,0,0,0,0,0,0,0
Cc1c(CN2CCN(S(C)(=O)=O)CC2)sc2c(N3CCOCC3)nc(-c3cnc(N)nc3)nc12 (2.5 µM),0,0,0,0,0,0,0,0,0,0
c1cn2cc(-c3ccc4cn[nH]c4c3)nc(Nc3ccc(N4CCOCC4)cc3)c2n1 [Entospletinib] (10 µM),0,0,0,0,0,0,0,0,0,0
NCCN1CCN(C/C=C/C(=O)N2CCC[C@@H](n3nc(-c4ccc(Oc5ccccc5)cc4)c4c(N)ncnc43)C2)CC1 [Ibrutinib-MPEA] (10 µM),0,0,0,0,0,0,0,0,0,0
N#Cc1ccc2ncnc(NC3CCC(N4CCOCC4)CC3)c2c1 (stereo not given) (10 µM),0,0,0,0,0,0,0,0,0,0
CC(C)=CC(=O)CCC(=O)N1CCN(Cc2cc3nc(-c4cccc5[nH]ncc45)nc(N4CCOCC4)c3s2)CC1 (10 µM),0,0,0,0,0,0,0,0,0,0
COC1(c2sc3c(N4CCOCC4)nc(-c4cnc(N)nc4)nc3c2C)COC1 (2.5 µM),0,0,0,0,0,0,0,0,0,0
COc1cc(F)c(F)c(Nc2ccc(I)cc2F)c1NS(=O)(=O)C1(C[C@H](O)CO)CC1 [Refametinib] (10 µM),0,0,0,0,0,1,0,0,0,1
CCN(CC)c1ccc2cc(C(=O)N3CCN(C(=O)C4=Cc5c(Br)cccc5S4(=O)=O)CC3)c(=O)oc2c1 (2 µM),0,0,0,0,0,0,0,0,0,0
COc1cc(C(N)=O)nc(-c2cccc(C#C[C@]3(O)CCN(C)C3=O)c2)c1 (10 µM),0,0,0,0,0,0,0,0,0,0
Cn1cc(Nc2nccc(N3C[C@H]4CC[C@@H](C3)N4C(=O)[C@@H]3CC3(F)F)n2)cn1 (10 µM),0,0,0,0,0,0,0,0,0,0
C=C1C(=O)O[C@@H]2C[C@@]3(C)CCC[C@H](C)C3=C[C@H]12 [Alantolactone] (10 µM),0,0,0,0,0,0,0,0,0,0
C=C(C)C(=O)Nc1cccc(-c2ncnc3[nH]cc(C(=O)OCC)c23)c1 (10 µM),0,0,0,0,0,0,0,0,0,0
COc1ccc(Cl)cc1NC(=O)Nc1cc(C)nc2ccccc12 (2.5 µM),0,0,0,0,0,0,0,0,0,0

Compound,number of time points (NTRK3),number of time points (PAK4),number of time points (PBK),number of time points (PDGFRB),number of time points (PDK1),number of time points (PDPK1),number of time points (PIK4CA),number of time points (PIK4CB),number of time points (PLK1),number of time points (PRKAA1)
C[C@@H]1C(=O)O[C@H](C)[C@H]1C[C@@H](O)[C@](C)(O)[C@H]1CC[C@@]2(O)C3=CC(=O)[C@@H]4C[C@@H](O)[C@@H](O)C[C@]4(C)[C@H]3CC[C@]12C [Cyasterone] (10 µM),0,0,0,0,0,0,0,0,0,0
Nc1ncnc2c1c(-c1ccc(Oc3ccccc3)cc1)nn2C1CCNCC1 [N-piperidine Ibrutinib (hydrochloride)] (10 µM),0,0,0,0,0,0,0,0,0,0
CCOc1cc(C(=O)N2CCC(N3CCN(C)CC3)CC2)ccc1Nc1ncc2c(n1)N(C1CCCC1)c1ccccc1C(=O)N2C (10 µM),0,0,0,0,0,0,0,0,0,0
CC1CN(C(=O)Nc2ccc(Cl)c(Cl)c2)C(=Nc2ccc(F)cc2)S1 (stereo not given) (10 µM),0,0,0,0,0,0,0,0,0,0
"O=C(O)c1cc(O)ccc1O [2,5-Dihydroxybenzoic acid] (10 µM)",0,0,0,0,0,0,0,0,0,0
C=CC(=O)Nc1ccc(CN(C(=O)Nc2c(Cl)c(OC)cc(OC)c2Cl)c2cc(Nc3ccc(N4CCN(C)CC4)cc3)ncn2)cc1 (10 µM),0,0,0,0,0,0,0,0,0,0
Nc1ncnc2c1c(-c1ccc(Oc3ccccc3)cc1)nn2C1CCCNC1 (racemic) (2.5 µM),0,0,0,0,0,0,0,0,0,0
OCCNC1CCCc2c1[nH]c1ccc(-c3ccccc3)cc21 (stereo not given) (2.5 µM),0,0,0,0,0,0,0,0,0,0
CC(C)CN(CC(=O)N1CCN(CC(OCc2ccc3ccccc3c2)c2ccc(Cl)cc2Cl)CC1)CC(C)C (stereo not given) [LYN-1604 (dihydrochloride)] (2.5 µM),0,0,0,0,0,0,0,0,0,0
CS(=O)(=O)c1ccc(-c2cnc(N)c(C(=O)Nc3ccccc3)n2)cc1 (10 µM),0,0,0,0,0,0,0,0,0,0
Nc1nccc(Oc2ccc(NC(=O)c3cn(COP(=O)(O)O)cc(-c4ccc(F)cc4)c3=O)cc2F)c1Cl (10 µM),0,0,0,3,0,1,0,0,0,1
COc1ccc2[nH]cc(/C=C3\C(=O)Nc4ccc(NC(=O)CCN5CCCCC5)cc43)c2c1 (2.5 µM),0,0,0,0,0,0,0,0,0,0
COc1ccc(CC(=O)Nc2nc3c(s2)CCc2ccccc2-3)cc1OC (10 µM),0,0,0,0,0,0,0,0,0,0
O=C(O)CCc1ccc(O)c(O)c1 [Dihydrocaffeic acid] (10 µM),0,0,0,0,0,0,0,0,0,0
NC1(Cc2ccc(Cl)cc2)CCN(c2ncnc3[nH]ccc23)CC1 (10 µM),0,0,0,0,0,0,0,0,0,0
Cc1ccc(S(=O)(=O)Nc2ccccc2C=Nc2ccccc2NS(=O)(=O)c2ccc(C)cc2)cc1 (10 µM),0,0,0,0,0,0,0,0,0,0

# 2 entries from above in another layout.
Compound	number of time points (NTRK3)	number of time points (PAK4)	number of time points (PBK)	number of time points (PDGFRB)	number of time points (PDK1)	number of time points (PDPK1)	number of time points (PIK4CA)	number of time points (PIK4CB)	number of time points (PLK1)	number of time points (PRKAA1)
O=C1NC(=O)C(=Cc2ccc(-c3ccc(F)cc3)o2)S1 (stereo in doubt) (10 µM)	0	0	0	0	0	0	0	0	0	0
Nc1ncnc2c1c(-c1ccc(Oc3ccccc3)cc1)nn2C1CCCNC1 (racemic) (2.5 µM)	0	0	0	0	0	0	0	0	0	0
